Measurements taken from US20120004157A1, “HYDROXYPROLINE COMPOSITIONS AND USES THEREOF” (Bergen Teknologioverforing AS, priority 2007, published 2012).

Test system: Atlantic salmon (Salmo salar)
Assay: 88 days growth experiment, growth and feed performance
Format: in vivo
Conditions: 88 days feeding, Diets 2-5 = 0.7, 1.4, 2.8, 5.6 gkg−1 added hydroxyproline, mean ± SD
Description: The diets used were composed such that they are equal in protein, lipid and energy, and designed to vary only in level of Hydroxyproline. The small amounts of Hydroxyproline added (L-4-Hydroksyproline, >99.0% pure, Fluka BioChemika. Sigma-Aldrich Chemie GmbH) were exchanged with fish meal, and the diets were otherwise adjusted with the content of raw wheat to secure equal chemical composition. Five different levels of Hydroxyproline were used in a regression design with two replicates for each level, except the diet without Hydroxyproline addition that was run in triplicate tanks. The levels used of hydroxyproline were 0, 0.7 gkg^−1, 1.4 gkg^−1, 2.8 gkg^−1 and 5.6 gkg^−1. As a negative control, Proline (L-Proline, (Hydroxy-L-Proline Free) Sigma grade, Sigma Chemical Company) was added to a level of 2.8 gkg^−1.
Atlantic salmon (Salmo salar) was obtained from Salmobreed May 2006. The fish was prevaccinated with Trippel Forte and was acclimated for 56 days before the trial started. The fish was given EWOS Opal Boost 50 3A, 3 mm pellets during this period. The fish was randomly distributed among 14 fiberglass tanks (1.5×1.5×1 m^3) with 80 fish per tank. Diet 1 and Diet 6 were run in triplicate tanks. Diet 2, Diet 3, Diet 4 and Diet 5 was run in duplicate tanks. Data are given also for a fish meal diet with no plant protein included. This diet was run simultaneously with fish of the same size, origin and treatment. This diet (Diet 7) was run in 2 m×2 m×1 m tanks in triplicate in a parallel experiment. […] Feed intake was measured daily as the difference between total feed given and total uneaten feed collected. Feed intake for the total experimental period was measured as the sum of the daily feed intakes, divided by feeding days and average fish weight during the experimental period; (start weight+final weight)/2. […]
The six experimental diets were randomly assigned to the 14 tanks, with 3 replicate tanks for Diet 1 and Diet 6 and to duplicate tanks for the other experimental diets. Initial fish weights and lengths were recorded. […] Final weights were determined for each fish in all tanks. […]

## O=C(O)[C@@H]1C[C@@H](O)CN1 [Hydroxyproline, L-4-Hydroksyproline]
  Condition factor: no difference or significant regressions
Dressing out percentage
  DOP: no difference or significant regressions
Hepatosomatic index
  HSI: no difference or significant regressions
